The values that follow are results of earlier work, collected in patent US20220031713A1, “METHODS OF TREATING MYELOPROLIFERATIVE DISORDERS” (Impact Biomedicines, Inc., priority 2018, published 2022).

This data set deals with MPN-associated myelofibrosis. The conditions noted are these: cited from earlier work.

Each structure is given as a SMILES string. Read-outs that look alike come from different tables or passages of the source.

On to `N#CC[C@H](C1CCCC1)n1cc(-c2ncnc3[nH]ccc23)cn1` [ruxolitinib, (3R)-3-cyclopentyl-3-[4-(7H-pyrrolo[2,3-d]pyrimidin-4-yl)pyrazol-1-yl]propanenitrile], for which the discontinuation rate by setting is: (1-year) 49%; (2-year) 71%; (3-year) 86%.
